According to patent US8426353B2, “Process for preparing polyurea microcapsules” (Firmenich SA, priority 2008, dated 2013):

Assays:
[1] = GC-MS analysis of perfume leaked out of the capsules during one month storage in concentrated fabric softener; type: physicochemical; settings: perfume of Example 9 encapsulated per Example 2, capsules at 1.25%
Protocol: The concentrated fabric softener base was prepared by admixing the ingredients listed in Table 4, in the amounts indicated.

[2] = GC-MS analysis of perfume leaked out of the capsules during one month storage in concentrated liquid detergent; type: physicochemical; settings: perfume of Example 9 encapsulated per Example 2, capsules at 1.25% in Tide 2x Concentrated HE Free
Description: The concentrated liquid detergent base was a commercially available Tide® 2× Concentrated HE Free of perfume & dye (trademark of Procter and Gamble, USA).
The concentrated liquid detergent base was the commercially available Tide® 2× Concentrated HE Free of perfume & dye (trademark of Procter and Gamble, USA).

CCCCCCCC1CCC(=O)O1 (stereo not shown) [γ-Undecalactone]
Percentage of perfume having leaked out of the capsules upon one month storage, % In fabric softener at 22° C. ([1]; one month at 22° C.): 26%
Percentage of perfume having leaked out of the capsules upon one month storage, % In fabric softener at 37° C. ([1]; one month at 37° C.): 100%
Percentage of perfume having leaked out of the capsules upon one month storage, % In Concentrated Liquid Detergent at 22° C. ([2]; one month at 22° C.): 26%
Percentage of perfume having leaked out of the capsules upon one month storage, % In Concentrated Liquid Detergent at 37° C. ([2]; one month at 37° C.): 90%
